Results deposited as PubChem BioAssay AID1159578 (Peter MacCallum Cancer Centre, 2015).
The whole screen tested about 18,000 reagents; this is an unselected part. About 1,030 of all reagents (5.7%) count as active. 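Inactive calls also include pools with fewer than 3300 nuclei, whose migration was not assessed.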 Raw values are not corrected between plates. Unmarked entries are inactive. Further read-outs or replicates are left out here.

Assay: 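siRNA pools altering how lymphatic endothelial cells close a scratch wound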 (primary screen)
System: human lymphatic endothelial cells
Reagents: siRNA pool against human genes, 40 nM
Time to read-out: 48 h after transfection
Measured: 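Cells stained with dye and imaged after a scratch; covered wound area and nuclei counted, duplicates averaged, migration set against mock wells and turned into a robust z-score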
Direction: migration robust z-score: higher = faster migration into the scratch; nuclei per well: higher = more cells in the well
Call rule: 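Migration changed when robust z exceeds 2 or falls below -2 and mean nuclei number is at least 3300; otherwise not called changed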
Meaning of the calls: active = migration changed; inactive = no migration change, or too few cells

After knock-down of OR6K3, the screen gave migration robust z-score -0.08; nuclei per well, duplicate mean 5898.
After knock-down of EIF2D, the record shows migration robust z-score -1.08; nuclei per well, duplicate mean 6444.
Depletion of MEOX1 gave: migration robust z-score 0.21; nuclei per well, duplicate mean 6924.
Against MYO1C the deposit lists migration robust z-score 0.74; nuclei per well, duplicate mean 6262.
For FOXF1, the values are migration robust z-score 0.28; nuclei per well, duplicate mean 4796.
With knock-down of TRIM29, the screen gave migration robust z-score 0.99; nuclei per well, duplicate mean 6636.
HCN2 scored migration robust z-score -0.29; nuclei per well, duplicate mean 4823.
After knock-down of MTOR the results were migration robust z-score -1.48; nuclei per well, duplicate mean 4758.
KIRREL2 scored migration robust z-score -0.93; nuclei per well, duplicate mean 5319.
For M1AP the deposit lists migration robust z-score -1.19; nuclei per well, duplicate mean 4376.
Silencing of RMI2 resulted in: migration robust z-score -0.32; nuclei per well, duplicate mean 5652.
Against HLA-DRB4 the deposit lists migration robust z-score 2.9 (active); nuclei per well, duplicate mean 7232.
Against TRAF5 the deposit lists migration robust z-score 1.25; nuclei per well, duplicate mean 6478.
Depletion of TMEM256 came out at: migration robust z-score -0.74; nuclei per well, duplicate mean 5877.
Against DPYSL2 the deposit lists migration robust z-score -2.18 (active); nuclei per well, duplicate mean 5056.
With knock-down of B4GALT7, the record shows migration robust z-score -0.78; nuclei per well, duplicate mean 5494.
Against TSPAN2, the values are migration robust z-score -4.32; nuclei per well, duplicate mean 2863.
Against FASTKD4, the values are migration robust z-score 1; nuclei per well, duplicate mean 6180.
Depletion of TRIP4 resulted in: migration robust z-score -0.18; nuclei per well, duplicate mean 5914.
With knock-down of KRTAP4-2, the record shows migration robust z-score -1.05; nuclei per well, duplicate mean 5596.
After knock-down of USP1 the results were migration robust z-score -2.05 (active); nuclei per well, duplicate mean 4967.
